Results deposited as PubChem BioAssay AID1259308 (NCATS, 2017).

Purpose: 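Knock-downs that increase output of a recombinant reporter protein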 (primary screen)
Cells: human HEK293 embryonic kidney cells stably expressing firefly luciferase (HEK-CMV-Luc2-Hygro)
Reagents: single siRNA against human genes, 0.8 pmol siRNA per well
Duration: 72 h
Measured: 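Luciferase light (ONE-Glo) measured on one replicate plate set and viability (CellTiter-Glo) on the other, scaled to a negative control siRNA, with robust z-scores and luciferase per cell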
Scale: total luciferase, z-score and total luciferase, % of control: higher = more reporter protein produced; luciferase per cell, z-score: higher = more reporter output per viable cell; viable cells, % of control: higher = more viable cells
Call rule: 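An siRNA counts as active if its total luciferase robust z-score exceeds 3; genes with two or more such siRNAs out of three were retested with fresh siRNAs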
Calls: active = raised luciferase; inactive = no rise
This is a random part of about 59,000 reagents. About 1,510 of them (2.6%) count as active. 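Calls use total luciferase alone and ignore viability, so some active siRNAs may act by altering cell number.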 Reagents against one gene are numbered here. No sequences are given here.

target | reagent no. | total luciferase, z-score | total luciferase, % of control | luciferase per cell, z-score | viable cells, % of control | activity call
FOXB2 (forkhead box B2) | 1 | 0.767 | 97.1 | 0.609 | 92.5 | inactive
FOXB2 (forkhead box B2) | 2 | -1.56 | 50.8 | -0.843 | 70.9 | inactive
FOXB2 (forkhead box B2) | 3 | 0.85 | 98.8 | 2.11 | 63.4 | inactive
GTPBP8 (GTP binding protein 8) | 1 | 1.55 | 113 | 1.19 | 92 | inactive
GTPBP8 (GTP binding protein 8) | 2 | 0.134 | 84.6 | -0.215 | 100 | inactive
GTPBP8 (GTP binding protein 8) | 3 | 4.31 | 168 | 3.01 | 84.8 | active
ACO2P1 (ACO2 pseudogene 1) | 1 | 2.83 | 138 | 2.06 | 89.7 | inactive
ACO2P1 (ACO2 pseudogene 1) | 2 | 2.08 | 123 | 2.01 | 81.2 | inactive
ACO2P1 (ACO2 pseudogene 1) | 3 | -0.0349 | 81.2 | -0.0108 | 91 | inactive
CNN3-DT (CNN3 divergent transcript) | 1 | 0.203 | 85.9 | -0.0771 | 98 | inactive
CNN3-DT (CNN3 divergent transcript) | 2 | -1.37 | 54.7 | -0.786 | 75.2 | inactive
CNN3-DT (CNN3 divergent transcript) | 3 | 0.692 | 95.6 | -0.273 | 115 | inactive
CHST10 (carbohydrate sulfotransferase 10) | 1 | -0.358 | 74.8 | -0.161 | 87.2 | inactive
CHST10 (carbohydrate sulfotransferase 10) | 2 | 1.86 | 119 | 2.35 | 71.5 | inactive
CHST10 (carbohydrate sulfotransferase 10) | 3 | -0.744 | 67.1 | -0.704 | 90.2 | inactive
COLEC10 (collectin subfamily member 10) | 1 | -0.133 | 79.3 | -0.336 | 96.8 | inactive
COLEC10 (collectin subfamily member 10) | 2 | -2.28 | 36.6 | -2.39 | 76.8 | inactive
COLEC10 (collectin subfamily member 10) | 3 | 1.2 | 106 | 1.61 | 77.4 | inactive
TNFRSF1A (TNF receptor superfamily member 1A) | 1 | -0.772 | 66.5 | -0.102 | 76.4 | inactive
TNFRSF1A (TNF receptor superfamily member 1A) | 2 | 0.356 | 89 | 0.0823 | 97.3 | inactive
TNFRSF1A (TNF receptor superfamily member 1A) | 3 | 1.22 | 106 | 1.99 | 70.2 | inactive
PDZK1IP1 (PDZK1 interacting protein 1) | 1 | -1.05 | 61 | -0.997 | 88.6 | inactive
PDZK1IP1 (PDZK1 interacting protein 1) | 2 | -0.433 | 73.3 | -0.488 | 93.1 | inactive
PDZK1IP1 (PDZK1 interacting protein 1) | 3 | 1.28 | 107 | 2.11 | 68.7 | inactive

Reprinted from the entries so far for reference:
target | reagent no. | total luciferase, z-score | total luciferase, % of control | luciferase per cell, z-score | viable cells, % of control | activity call
FOXB2 (forkhead box B2) | 2 | -1.56 | 50.8 | -0.843 | 70.9 | inactive
FOXB2 (forkhead box B2) | 3 | 0.85 | 98.8 | 2.11 | 63.4 | inactive
GTPBP8 (GTP binding protein 8) | 1 | 1.55 | 113 | 1.19 | 92 | inactive
GTPBP8 (GTP binding protein 8) | 2 | 0.134 | 84.6 | -0.215 | 100 | inactive
